Measurements taken from article PMC2764089.

Protein sequences, listed by entry. Tags and fused reporters are not part of them.
UniProt P10591: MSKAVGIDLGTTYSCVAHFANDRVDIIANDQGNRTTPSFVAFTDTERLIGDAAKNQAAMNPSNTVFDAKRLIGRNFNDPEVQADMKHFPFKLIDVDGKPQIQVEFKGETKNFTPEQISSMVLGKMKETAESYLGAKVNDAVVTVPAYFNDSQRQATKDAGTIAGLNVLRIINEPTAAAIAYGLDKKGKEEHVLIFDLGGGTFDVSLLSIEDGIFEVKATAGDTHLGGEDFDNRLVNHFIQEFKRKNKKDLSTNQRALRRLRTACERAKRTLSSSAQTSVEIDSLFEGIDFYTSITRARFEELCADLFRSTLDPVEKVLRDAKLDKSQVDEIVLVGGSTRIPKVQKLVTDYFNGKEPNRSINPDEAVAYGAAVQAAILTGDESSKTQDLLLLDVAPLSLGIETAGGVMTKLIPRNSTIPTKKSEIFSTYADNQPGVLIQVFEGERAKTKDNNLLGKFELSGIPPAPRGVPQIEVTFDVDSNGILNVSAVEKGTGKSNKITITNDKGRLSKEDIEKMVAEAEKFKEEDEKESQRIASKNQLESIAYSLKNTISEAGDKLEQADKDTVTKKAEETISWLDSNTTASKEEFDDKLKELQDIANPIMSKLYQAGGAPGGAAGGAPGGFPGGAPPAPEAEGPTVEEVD

Target: T1, GST-Spc105p (S. cerevisiae) (UniProt P53148)
T1 sequence: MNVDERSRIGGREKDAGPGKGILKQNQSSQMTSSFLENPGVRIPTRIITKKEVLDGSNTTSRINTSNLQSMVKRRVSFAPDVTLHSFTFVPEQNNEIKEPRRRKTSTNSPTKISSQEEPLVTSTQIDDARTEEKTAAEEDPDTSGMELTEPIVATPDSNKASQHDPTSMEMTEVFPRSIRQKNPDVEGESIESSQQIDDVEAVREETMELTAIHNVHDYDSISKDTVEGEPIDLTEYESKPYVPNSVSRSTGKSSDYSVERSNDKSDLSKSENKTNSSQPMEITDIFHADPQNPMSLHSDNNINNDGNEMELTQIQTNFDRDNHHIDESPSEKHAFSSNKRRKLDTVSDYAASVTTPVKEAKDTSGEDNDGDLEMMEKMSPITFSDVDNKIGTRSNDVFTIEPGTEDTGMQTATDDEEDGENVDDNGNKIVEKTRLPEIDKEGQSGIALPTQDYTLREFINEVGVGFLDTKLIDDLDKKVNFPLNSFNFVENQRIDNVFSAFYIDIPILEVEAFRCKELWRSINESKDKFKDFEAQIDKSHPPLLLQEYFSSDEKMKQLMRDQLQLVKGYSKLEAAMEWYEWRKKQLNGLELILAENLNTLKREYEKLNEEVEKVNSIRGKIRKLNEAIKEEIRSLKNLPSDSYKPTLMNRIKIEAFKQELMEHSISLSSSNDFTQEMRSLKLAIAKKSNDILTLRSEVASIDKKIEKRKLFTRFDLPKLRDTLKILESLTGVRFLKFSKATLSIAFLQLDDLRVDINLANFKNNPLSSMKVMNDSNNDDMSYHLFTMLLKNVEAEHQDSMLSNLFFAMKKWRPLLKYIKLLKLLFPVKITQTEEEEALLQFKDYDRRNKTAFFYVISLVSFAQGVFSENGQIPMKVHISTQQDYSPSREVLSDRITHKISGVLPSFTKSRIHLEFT
Assay: affinity purification with mass spectrometry; GST-Spc105p (GAL1 promoter) isolated from whole yeast cell extracts on glutathione beads, washed extensively, released with Precision protease; SDS-PAGE species identified by mass spectrometry

Substance: Ssa1p (from UniProt P10591 1-642)
- binding: binds

Results are given in words; binding and its absence hold for the method and conditions named. In cells and extracts the contact can be indirect. Here binding means that the protein was enriched with, or labelled near, the bait; the list need not be complete. Where a sequence is shown, tags or fusion partners need not be part of it.
